These are yes or no findings as the source states them, for the method shown. For part of these data: In cells and extracts the contact can be indirect. Some results given as binding are weak or reduced against the parent protein; the word gives no strength.
What was measured:
[1] = biological target: p135 with N-terminal Twin-Strep tag (human) (UniProt Q14203); assay: pull-down
[2] = biological target: p135 with N-terminal Twin-Strep tag (human) (UniProt Q14203); assay: native gel or EMSA
[3] = biological target: N-terminal Twin Strep-tagged EXOC5 (human) (UniProt O00471); assay: pull-down

The chains behind the UniProt entries cited, without tags or fusion partners. Where a name states a change or a piece, a line headed by the entry shows the natural chain unless it says otherwise. A line that says so, or that is headed by a name, gives the form on record, which may keep a tag or linker.
p135 with N-terminal Twin-Strep tag (Q14203, form named): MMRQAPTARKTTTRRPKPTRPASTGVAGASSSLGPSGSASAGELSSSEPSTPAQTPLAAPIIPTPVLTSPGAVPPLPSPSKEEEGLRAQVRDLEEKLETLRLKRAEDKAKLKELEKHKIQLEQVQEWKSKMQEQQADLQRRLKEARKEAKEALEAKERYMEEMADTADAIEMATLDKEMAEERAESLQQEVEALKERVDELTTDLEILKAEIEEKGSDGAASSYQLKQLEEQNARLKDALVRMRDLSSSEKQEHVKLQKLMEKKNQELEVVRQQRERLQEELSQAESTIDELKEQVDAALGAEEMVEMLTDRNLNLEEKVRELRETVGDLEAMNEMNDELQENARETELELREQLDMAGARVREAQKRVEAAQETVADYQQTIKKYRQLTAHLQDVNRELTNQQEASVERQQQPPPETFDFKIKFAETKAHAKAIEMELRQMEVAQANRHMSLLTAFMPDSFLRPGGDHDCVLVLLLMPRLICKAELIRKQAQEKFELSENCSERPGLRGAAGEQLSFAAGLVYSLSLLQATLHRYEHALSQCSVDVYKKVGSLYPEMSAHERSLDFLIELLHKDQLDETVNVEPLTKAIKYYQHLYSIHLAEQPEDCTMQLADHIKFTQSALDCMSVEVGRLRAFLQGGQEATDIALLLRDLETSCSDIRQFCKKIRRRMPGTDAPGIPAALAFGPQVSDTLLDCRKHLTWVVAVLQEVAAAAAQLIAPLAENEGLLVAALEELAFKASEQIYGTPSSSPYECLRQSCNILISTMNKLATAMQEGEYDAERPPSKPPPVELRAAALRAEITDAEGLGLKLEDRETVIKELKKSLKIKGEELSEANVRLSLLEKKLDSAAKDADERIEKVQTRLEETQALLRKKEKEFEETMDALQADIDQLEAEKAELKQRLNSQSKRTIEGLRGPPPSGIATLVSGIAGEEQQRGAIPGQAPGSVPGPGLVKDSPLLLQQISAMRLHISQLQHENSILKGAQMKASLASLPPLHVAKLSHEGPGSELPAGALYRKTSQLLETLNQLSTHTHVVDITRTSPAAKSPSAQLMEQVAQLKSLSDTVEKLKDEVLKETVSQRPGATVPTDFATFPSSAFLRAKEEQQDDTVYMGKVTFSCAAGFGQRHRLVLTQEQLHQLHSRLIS
UniProt O00471: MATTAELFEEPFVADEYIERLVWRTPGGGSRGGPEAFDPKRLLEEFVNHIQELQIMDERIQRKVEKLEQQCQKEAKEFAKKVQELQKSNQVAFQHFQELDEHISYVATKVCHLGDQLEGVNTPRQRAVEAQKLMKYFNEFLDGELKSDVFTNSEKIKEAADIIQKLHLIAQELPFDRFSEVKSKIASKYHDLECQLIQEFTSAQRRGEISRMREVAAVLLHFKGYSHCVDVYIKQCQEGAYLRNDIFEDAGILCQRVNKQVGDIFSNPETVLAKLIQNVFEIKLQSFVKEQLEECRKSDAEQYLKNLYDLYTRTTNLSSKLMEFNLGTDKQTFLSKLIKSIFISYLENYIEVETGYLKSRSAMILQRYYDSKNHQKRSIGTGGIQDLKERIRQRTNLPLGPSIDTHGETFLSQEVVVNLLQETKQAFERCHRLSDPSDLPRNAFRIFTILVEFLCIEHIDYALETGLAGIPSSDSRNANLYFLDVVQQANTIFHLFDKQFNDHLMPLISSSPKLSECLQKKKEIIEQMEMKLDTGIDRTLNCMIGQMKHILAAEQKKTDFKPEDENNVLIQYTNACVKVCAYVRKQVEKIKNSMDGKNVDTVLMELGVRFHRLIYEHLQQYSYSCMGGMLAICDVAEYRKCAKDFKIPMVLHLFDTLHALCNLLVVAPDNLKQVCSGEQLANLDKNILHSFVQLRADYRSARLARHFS
UniProt O00399: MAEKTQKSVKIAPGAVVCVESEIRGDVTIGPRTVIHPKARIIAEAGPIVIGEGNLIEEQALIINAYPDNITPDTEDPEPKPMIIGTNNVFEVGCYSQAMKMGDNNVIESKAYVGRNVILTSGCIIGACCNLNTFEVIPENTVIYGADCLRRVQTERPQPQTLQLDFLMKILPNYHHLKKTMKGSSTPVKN
UniProt Q9NZ32: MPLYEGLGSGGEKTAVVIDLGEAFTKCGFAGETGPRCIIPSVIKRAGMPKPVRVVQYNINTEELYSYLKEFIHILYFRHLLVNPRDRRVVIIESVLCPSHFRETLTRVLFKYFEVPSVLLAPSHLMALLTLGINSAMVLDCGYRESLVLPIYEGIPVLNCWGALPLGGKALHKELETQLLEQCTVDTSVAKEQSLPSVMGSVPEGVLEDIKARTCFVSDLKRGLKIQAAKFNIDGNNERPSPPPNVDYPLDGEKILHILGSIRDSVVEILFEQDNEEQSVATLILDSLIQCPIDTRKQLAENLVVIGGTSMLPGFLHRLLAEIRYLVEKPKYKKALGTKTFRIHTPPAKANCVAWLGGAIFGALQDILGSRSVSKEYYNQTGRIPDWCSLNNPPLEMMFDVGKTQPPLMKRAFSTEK
UniProt P47756: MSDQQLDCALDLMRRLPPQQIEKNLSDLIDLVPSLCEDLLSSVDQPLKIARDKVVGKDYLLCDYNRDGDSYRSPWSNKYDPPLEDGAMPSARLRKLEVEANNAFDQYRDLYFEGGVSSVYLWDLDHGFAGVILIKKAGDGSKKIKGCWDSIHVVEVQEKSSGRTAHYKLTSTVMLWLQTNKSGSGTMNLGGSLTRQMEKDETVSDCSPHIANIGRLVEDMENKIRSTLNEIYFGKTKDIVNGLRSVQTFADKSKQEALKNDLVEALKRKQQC
UniProt Q8TAG9: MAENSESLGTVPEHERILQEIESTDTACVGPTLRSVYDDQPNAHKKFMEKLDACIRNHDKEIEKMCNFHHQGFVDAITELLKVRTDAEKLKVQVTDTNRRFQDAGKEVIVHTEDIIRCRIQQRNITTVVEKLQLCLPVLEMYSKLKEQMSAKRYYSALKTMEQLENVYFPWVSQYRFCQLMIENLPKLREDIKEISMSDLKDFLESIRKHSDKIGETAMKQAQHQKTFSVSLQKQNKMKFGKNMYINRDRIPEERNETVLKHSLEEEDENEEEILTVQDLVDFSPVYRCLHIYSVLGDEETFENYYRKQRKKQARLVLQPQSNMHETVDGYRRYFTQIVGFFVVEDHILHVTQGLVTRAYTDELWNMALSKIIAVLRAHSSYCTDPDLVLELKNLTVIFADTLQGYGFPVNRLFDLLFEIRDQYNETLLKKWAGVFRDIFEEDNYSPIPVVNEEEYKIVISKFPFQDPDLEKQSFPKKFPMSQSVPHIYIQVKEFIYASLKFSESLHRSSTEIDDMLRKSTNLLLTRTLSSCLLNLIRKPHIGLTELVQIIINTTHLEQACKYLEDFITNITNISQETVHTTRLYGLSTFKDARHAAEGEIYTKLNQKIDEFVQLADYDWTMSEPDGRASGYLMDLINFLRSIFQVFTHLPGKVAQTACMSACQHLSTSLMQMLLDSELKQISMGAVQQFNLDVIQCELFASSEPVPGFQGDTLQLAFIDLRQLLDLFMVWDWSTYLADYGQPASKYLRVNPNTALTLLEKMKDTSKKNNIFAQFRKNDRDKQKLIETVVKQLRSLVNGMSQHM
UniProt Q9UJW0: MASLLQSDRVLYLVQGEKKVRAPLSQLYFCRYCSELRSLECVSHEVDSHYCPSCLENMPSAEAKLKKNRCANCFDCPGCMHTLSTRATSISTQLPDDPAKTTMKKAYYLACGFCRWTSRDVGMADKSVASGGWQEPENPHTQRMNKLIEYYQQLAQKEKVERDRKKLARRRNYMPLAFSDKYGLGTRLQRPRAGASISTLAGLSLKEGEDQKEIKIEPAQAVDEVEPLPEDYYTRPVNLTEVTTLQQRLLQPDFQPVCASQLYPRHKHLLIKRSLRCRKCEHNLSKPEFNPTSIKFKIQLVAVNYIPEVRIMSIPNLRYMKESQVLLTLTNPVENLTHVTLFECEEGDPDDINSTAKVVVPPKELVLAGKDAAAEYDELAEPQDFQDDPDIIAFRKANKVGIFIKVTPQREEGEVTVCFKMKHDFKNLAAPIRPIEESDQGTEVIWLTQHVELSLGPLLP
UniProt O75935: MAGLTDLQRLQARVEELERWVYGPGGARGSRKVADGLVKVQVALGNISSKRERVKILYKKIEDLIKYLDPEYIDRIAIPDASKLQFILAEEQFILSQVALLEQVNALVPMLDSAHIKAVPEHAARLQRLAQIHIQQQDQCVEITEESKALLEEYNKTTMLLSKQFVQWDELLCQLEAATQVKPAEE
UniProt P61163: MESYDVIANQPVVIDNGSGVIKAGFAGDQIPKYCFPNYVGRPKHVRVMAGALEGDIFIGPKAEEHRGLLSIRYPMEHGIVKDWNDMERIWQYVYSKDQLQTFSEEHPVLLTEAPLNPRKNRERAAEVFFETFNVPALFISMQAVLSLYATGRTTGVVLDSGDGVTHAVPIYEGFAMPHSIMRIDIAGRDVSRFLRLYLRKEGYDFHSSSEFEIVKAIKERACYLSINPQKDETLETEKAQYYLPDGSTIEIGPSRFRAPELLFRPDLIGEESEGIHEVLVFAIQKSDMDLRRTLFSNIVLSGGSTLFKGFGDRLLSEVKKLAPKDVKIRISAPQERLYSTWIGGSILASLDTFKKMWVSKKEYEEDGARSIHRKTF
UniProt Q9BTE1: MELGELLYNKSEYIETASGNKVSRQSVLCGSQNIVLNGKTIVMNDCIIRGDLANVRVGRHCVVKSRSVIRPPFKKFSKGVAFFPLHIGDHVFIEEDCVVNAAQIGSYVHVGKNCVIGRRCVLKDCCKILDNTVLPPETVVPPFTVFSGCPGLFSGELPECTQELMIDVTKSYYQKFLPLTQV

binding [3] | Substance | binding [1] | binding [2]
– | p27 (from UniProt O00399 1-190) | binds | binds
– | Arp11 (from UniProt Q9NZ32 1-417) | binds | binds
– | CapZβ (from UniProt P47756 1-272) | binds | binds
binds | EXOC6 (from UniProt Q8TAG9 1-804) | – | –
– | p62 (from UniProt Q9UJW0 1-460) | binds | binds
– | p24 (from UniProt O75935 1-186) | binds | binds
– | Arp1 (from UniProt P61163 1-376) | binds | binds
– | p25 (from UniProt Q9BTE1 1-182) | binds | binds
